# Experimental data published in US5236899A (Merck & Co., Inc., priority 1991, dated 1993).
# At least one peptide structure holds a part that was inferred or is arguable (an end, a ring closure or a residue).
# How the values were obtained:
# Conditions in all cases: result in words
# [1] = system: MDR CHO cells (multidrug-resistant); assay: Doxorubicin growth inhibition, methylene blue staining method, multidrug-resistant cells; assay type: cell-based, Chinese hamster
# From the text: Multidrug-resistant cells lines are easily obtainable for in vitro determination of drug sensitization by compounds of the present invention, as well as other compounds with similar activity. These cell lines include NIH-OVCAR-3 (ATCC HTB161)., which is commercially available. Other cell lines can be readily developed in accordance with the methods described by Twentyman et al., Br. J. Cancer, 54, 253 (1986). This procedure selects for multidrug-resistant cells by culturing the parental drug sensitive cell line in the continued presence of a cytotoxic drug, for example, doxorubicin.
# Drug sensitive cells will perish while multidrug-resistant cells will survive and grow despite the presence of the drug. Eventually, a multidrug-resistant cell population emerges and can be used in an assay system for the detection of agents which can modify the multidrug-resistance. Many cell lines are suitable as parental cell lines from which multidrug-resistant cells can be selected. […]
# Equal numbers of cells of an anchorage dependent mammalian cell line are seeded in growth medium (e.g. alpha MEM plus 10% FBS) into a suitable culture vessel, e.g. plastic 96 well tissue culture plates. […] The amount of methylene blue dye in the wells can be measured spectrophotometrically by measuring absorbance at 600 nm using an electronic ELISA plate spectrophotmeter (Minireader II, Dynatech Laboratories, Alexandria, VA). […]
# [2] = system: Parental CHO cells (Drug Sensitive); assay: Doxorubicin growth inhibition, methylene blue staining method, parental drug-sensitive cells; assay type: cell-based, Chinese hamster
# Method: Equal numbers of cells of an anchorage dependent mammalian cell line are seeded in growth medium (e.g. alpha MEM plus 10% FBS) into a suitable culture vessel, e.g. plastic 96 well tissue culture plates. A cytotoxic drug (e.g. doxorubicin) is added to the cells in the dishes at various concentrations ranging between 0 and 100 uM. Following about 72 hours of continuous exposure to the cytotoxic agent, the growth medium is decanted and the cells are washed with a suitable buffer, e.g. phosphate buffered saline (PBS). About 2 ml of a solution of 2% methylene blue (dissolve methylene blue in a solution of about 50% ethanol in water) is added to the cells on the dishes. The dye is allowed to contact the cells for about 2 minutes. Excess dye is washed away with cold water and the plates are air dried. The dye stained cells are then solubilized by adding an equal volume to all wells of a solution of a detergent, e.g. 1% N-lauroyl-sarcosine. The amount of dye remaining in the wells directly correlates witht he number of cells in the well. The amount of methylene blue dye in the wells can be measured spectrophotometrically by measuring absorbance at 600 nm using an electronic ELISA plate spectrophotmeter (Minireader II, Dynatech Laboratories, Alexandria, VA). […]
# [3] = Immunosuppressive activity
Structure (SMILES),Sensitization of multidrug-resistant cells to antitumor chemotherapeutic agents such as doxorubicin [1],Increase of drug sensitivity of drug-susceptible (parental) cells [2],Immunosuppressive activity [3]
C/C=C/C[C@@H](C)[C@@H](O)[C@H]1C(=O)N[C@@H](CC)C(=O)N(C)CC(=O)N(C)[C@@H](CC(C)C)C(=O)N[C@@H](C(C)C)C(=O)N(C)[C@@H](CC)C(=O)N[C@@H](C)C(=O)N[C@H](C)C(=O)N(C)[C@@H](CC(C)C)C(=O)N(C)[C@@H](CC(C)C)C(=O)N(C)[C@@H](C(C)C)C(=O)N1C [6-MeAbu],have the ability to sensitize multidrug resistant tumor cells,have the ability to potentiate the sensitivity of tumor cells,non-immunosuppressive
"C/C=C/C[C@@H](C)[C@@H](O)[C@H]1C(=O)N[C@@H](CC)C(=O)N(C)CC(=O)N(C)[C@@H](CC(C)C)C(=O)N[C@@H](C(C)C)C(=O)N(C)[C@@H](C)C(=O)N[C@@H](C)C(=O)N[C@H](C)C(=O)N(C)[C@@H](CC(C)C)C(=O)N(C)[C@@H](CC(C)C)C(=O)N(C)[C@@H](C(C)C)C(=O)N1C [6-MeAla, Cyclo[-((2S,3R,4R,6E)-3-Hydroxy-4-methyl-2-methylamino-6-octenoyl)-L-2-aminobutyryl-sarcosyl-N-methyl-L-leucyl-Valyl-N-methyl-L-alanyl-L-alanyl-D-alanyl-N-methyl-L-leucyl-N-methyl-L-leucyl-N-methyl-L-valyl]]",have the ability to sensitize multidrug resistant tumor cells,have the ability to potentiate the sensitivity of tumor cells,non-immunosuppressive
